The subject of the assay is BDF1 mice, Adenocarcinoma 755 s.c., tumor weight T/C. In words: NCI In Vivo Anticancer Drug Screen. Data for tumor model Adenocarcinoma 755 (subcutaneous) in B6D2F1 (BDF1) mice. The conditions noted are these: T/C endpoint: mean tumor weight, higher T/C = larger tumour; for T/C: evaluated on day 12. Put shortly: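 Readout: T/C, i.e. treated-group measurement over vehicle-control measurement. Endpoint is survival or tumor size in tumor-bearing mice given compound.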

The mark [1] stands for this setting: dose: 350.0 mg/kg/injection, schedule: Q01DX011 (ip), vehicle: carboxymethylcellulose (CMC).

This passage reports survivor count and T/C results from PubChem BioAssay AID180 (DTP/NCI, 2004).

The list is a part of this screen's results and no random one: it gathers tests that were run many times, whatever their T/C, doses with no T/C, and many T/C values between a quarter and a half above the control. Further doses and runs are listed elsewhere. T/C: endpoint of the treated group in % of that of the vehicle group. Some T/C values carry the count of animals alive at the toxicity check (mostly the fifth day); where none is given, no animal had died by that day. Schedule codes are those of the source, read here as Q, the interval in days (D) or hours (H), X, the number of doses. Some doses have a count of surviving animals in place of a T/C: the source holds a T/C of zero for them, seemingly a mark for toxic or unscored doses. Counts of survivors are from the toxicity check (mostly the fifth day) where no day follows; animals may have died later. Some entries hold several experiments; the values are given in rising order.

`COc1ccc(-c2c(C)c(C(=O)O)nc(-c3ccc4c(O)c(OC)c5c(c4n3)=NC(C)(C)N=5)c2N)c(O)c1OC`: the survivor count was 3 of 12 (dose: 20.0 mg/kg/injection, schedule: Q01DX011 (oral), vehicle: water); 4 of 10 (dose: 67.0 mg/kg/injection, schedule: Q01DX001 (ip), vehicle: water); 4 of 10 (dose: 75.0 mg/kg/injection, schedule: Q07DX002 (ip), vehicle: water); 1 of 10 and 4 of 10 (dose: 100.0 mg/kg/injection, schedule: Q01DX001 (ip), vehicle: water).
With `O=C1C(NC(=O)C2CCCCC2)=C(N2CC2)C(=O)C(NC(=O)C2CCCCC2)=C1N1CC1`, the survivor count was 6 of 10 (dose: 44.0 mg/kg/injection, schedule: Q01DX011 (ip), vehicle: methylcellulose (MC)); 4 of 10 (dose: 87.5 mg/kg/injection, schedule: Q01DX011 (ip), vehicle: methylcellulose (MC)); 3 of 10 and 6 of 10 under setting [1]; 0 of 10 (dose: 350.0 mg/kg/injection, schedule: Q01DX011 (ip), vehicle: other).
As for `c1cc[nH]c1`, under “dose: 20.0 mg/kg/injection, schedule: Q01DX011 (ip), vehicle: carboxymethylcellulose (CMC)”, the T/C was 129 % of control [9 of 10 alive].
As to `Cc1cnc(SCc2ccc(Cl)cc2Cl)nc1Nc1ccc(Cl)c(Cl)c1`, the survivor count by setting is: (dose: 125.0 mg/kg/injection, schedule: Q01DX011 (ip), vehicle: methylcellulose (MC)) 6 of 10; (dose: 250.0 mg/kg/injection, schedule: Q01DX011 (ip), vehicle: methylcellulose (MC)) 5 of 10.
As to `Cc1ccccc1N=Nc1ccc(N=Nc2ccc(O)cc2)c(C)c1`, the survivor count (dose: 15.0 mg/kg/injection, schedule: Q01DX011 (ip), vehicle: methylcellulose (MC)) is 3 of 10.
As for `CCC1CN1P(=O)(Oc1cccc2ccccc12)N1CC1CC` (configuration not stated), the survivor count is, setting by setting: (dose: 175.0 mg/kg/injection, schedule: Q01DX011 (ip), vehicle: carboxymethylcellulose (CMC)) 6 of 10; under setting [1], 0 of 10; (dose: 700.0 mg/kg/injection, schedule: Q01DX011 (ip), vehicle: carboxymethylcellulose (CMC)) 0 of 10. The T/C (dose: 700.0 mg/kg/injection, schedule: Q01DX011 (ip), vehicle: methylcellulose (MC)) is 137 % of control [9 of 10 alive].
Take `c1ccc2[nH]cnc2c1`: the survivor count (dose: 308.0 mg/kg/injection, schedule: Q01DX011 (ip), vehicle: carboxymethylcellulose (CMC)) is on record as 5 of 10.
Take `NC(=O)OCCI`: the survivor count was 6 of 10 (dose: 6.25 mg/kg/injection, schedule: Q01DX011 (ip), vehicle: methylcellulose (MC)); 6 of 10 (dose: 12.5 mg/kg/injection, schedule: Q01DX011 (ip), vehicle: methylcellulose (MC)); 3 of 10 (dose: 25.0 mg/kg/injection, schedule: Q01DX011 (ip), vehicle: methylcellulose (MC)); 6 of 10 (dose: 50.0 mg/kg/injection, schedule: Q01DX011 (ip), vehicle: methylcellulose (MC)); 3 of 10 (dose: 100.0 mg/kg/injection, schedule: Q01DX011 (ip), vehicle: methylcellulose (MC)).
